The results are deposited in PubChem (AID1159506; NCATS, 2015).

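Luminescence from an EWS-FLI1 target-promoter (NR0B1) reporter, set against a CMV-promoter reporter, two days after silencing single genes in TC32 Ewing sarcoma cells.
Each siRNA was applied at 20 nM.
A z-score of the log NR0B1-over-CMV signal, less the median of siRNAs with the same seed; more negative means a stronger specific loss of the NR0B1 reporter.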

This is part of the screen; most of the strongest results are not listed here.
Sequences are the guide (antisense) strand, without overhang.

Result for UUUGGUCCACUCGACAAUC against TRPM2 was seed-corrected z-score -0.676. UUUCGACUCACUGGUUUGC against ICOSLG gave seed-corrected z-score 1.412. UCUCCUUACAUUUAUCUUC against MIS12 gave seed-corrected z-score 0.2259. Result for AGACUUUCCAGGGUAUAUC against CCNA2 was seed-corrected z-score -0.9769. With UAGAUGAAGAGGUUACAGC against CELF6 the assay gave seed-corrected z-score -0.02591.

Result for AUUGAUAGUCCAUAUGUGC against C9orf72 was seed-corrected z-score -1.772. For UUGACAUCAAAGAAGAUUG against GDE1 the result was seed-corrected z-score 0.01173. Result for UUCCGAUUAUCCAGCAUCC against UBP1 was seed-corrected z-score 0.1748. AUCCCAAACGGUGACCUCC against DOC2B gave seed-corrected z-score -0.7869. Result for UCUGGUGCUGGUCUUGUUG against PALMD was seed-corrected z-score -1.645.

UGAAUAGAUACUAUGAGGG against ABCB7 read seed-corrected z-score 0.6236. AUAGUGUCCUUCAAAGUGG against DUSP4 gave seed-corrected z-score 1.35. AUUUCUGAUAGGACAAUGC against MB21D2 gave seed-corrected z-score -0.2176. For UUUUAGAGAACUCUGAAGC against BTF3L4 the result was seed-corrected z-score -0.1934. Result for AAAUGUCUUACGAUGCAGC against PCGF6 was seed-corrected z-score -1.553.

For UCGAGUUCUGGGAAGCUGC against C16orf59 the result was seed-corrected z-score -1.308. UCAAAUGCAUGCACCACCU against RAD51D gave seed-corrected z-score 0.8045. With UUAGGUCUCUCAGCAACAG against TBC1D4 the assay gave seed-corrected z-score -1.123. For AGCAUUCUAAAUACAUUUC against NAT16 the result was seed-corrected z-score 0.1203. For AUUAAUAUUAUCCACCUCG against MCEE the result was seed-corrected z-score 1.099.

ACUGAGAACAGAUCCAACC against LOC401554 gave seed-corrected z-score -0.09737. UGUCCGAUCAAAUCCUCCC against SPEN read seed-corrected z-score -0.06507. Result for UCUCUGACAAGCCCAAAGG against RFX8 was seed-corrected z-score -0.3926. UCUCCAAAUACGAAAAAGC against MPC2 read seed-corrected z-score 1.318. With UCAUGAUCUAUGAUUGCGG against CDC42BPA the assay gave seed-corrected z-score -1.35.

For UAGGAUCAUAACAAGCAGC against DBR1 the result was seed-corrected z-score 0.02175. For UGUUUGCUAACAGUAAUUC against ARHGAP28 the result was seed-corrected z-score 0.08381. UUGUUGUUGACCGUCUGUG against NFYB read seed-corrected z-score -0.4259. UUCUUGUUGACCUCAAAAC against ZMAT2 read seed-corrected z-score 0.564. With UAUGAAUCAUAUGAUGACG against ZNF184 the assay gave seed-corrected z-score -0.5925.

AUAGUUAUCCGCACUGACC against IL4R gave seed-corrected z-score -0.7541. With AAACGCACAGUAGAUACAU against AGAP4 the assay gave seed-corrected z-score 0.008468. UAGCAGAGUAAUAAGAAUG against SPATA4 read seed-corrected z-score 0.01111. Result for UCAAUGUCCACGGUUCUAG against CARMN was seed-corrected z-score -1.1. UCCCUUUGACCCUUUGUCC against SHE read seed-corrected z-score -0.398.

For AUCUGGGCAAGUUUGCUGC against PBX2 the result was seed-corrected z-score 0.01258. UUACGAAUAAGCAGUUCAG against HIST1H3A gave seed-corrected z-score 0.6276. AAAUUGUCAAGAGAUGCAC against LIPI gave seed-corrected z-score -0.08376. UACAUAGUCUCGGAUCUGG against RAB37 gave seed-corrected z-score 1.089. With UGUUGGUGAGAUGCGGUGG against FAM127B the assay gave seed-corrected z-score 0.3761.

AUUCUCUCAAGUUCACCUG against NUDT13 read seed-corrected z-score 0.6743. AAAAGCAUACGAUAUAAGG against OR2B2 read seed-corrected z-score -0.6841. With UAAUGUCUAGGUGAGUAGG against ALG14 the assay gave seed-corrected z-score -1.511.

Some entries from above, unchanged:

siRNA	target gene	seed-corrected z-score
UCUCCUUACAUUUAUCUUC	MIS12	0.2259
AAAUGUCUUACGAUGCAGC	PCGF6	-1.553